From ChEMBL document CHEMBL3988442, “University of Dundee, Small-Polar-MMV Screening Library” (2021).

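Viability assay of Plasmodium falciparum sporozoites; the read-out is not stated. The concentration is filed as 10 mM, unlikely as a test dose, so the dose is not known. The record gives no direction; compounds that gave an IC50 in retests scored well above the rest, so higher reads as lower viability. Strong results were mostly tested again. About 34,000 compounds were tested under these conditions; 0.84% (about 280) showed 50% or more at least once.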

Each number is a percent effect as filed.
The record does not define 0% and 100%; most values in the screen are far below 50% and negative numbers occur (in some assays of this library far below -100).
This is an unselected part of the compounds tested.
Two or more numbers in one place are separate tests of the same structure; such repeats can differ widely.

SMILES,percent effect
Cc1cccc(NC(=O)N2CC(C(=O)NC(C)C)C3(CCOCC3)C2)c1 (stereo not drawn),-1.546
Cc1ccc(NC(=O)Cn2cc(I)cn2)cc1,-17.48 and -21.7 and -14.78
O=C(C1CCCN1Cc1nc(-c2ccco2)no1)N1CCSCC1 (stereo not drawn),14.26
O=c1[nH]c2ccccc2c(=O)n1Cc1nnnn1C1CC1,6.363 and 7.402
CCNc1ccnc(NCC2(N(C)C)CCOCC2)n1,2.281
O=C(O)C(F)(F)F.[H][C@@]12CCCO[C@]1([H])[C@H](NC(=O)c1cnccn1)CN(CCOC)C2,4.87
Cc1nc(C(C)(C)C)sc1C(=O)NCCNc1ncccc1C#N,-17.97
CC(C)C(NC(=O)Nc1ccccn1)c1cccs1 (stereo not drawn),14.64
CN(CCCO)C(=O)c1ccc2c(c1)nc(N1CC[C@H](O)C1)n2C,-4.066
CC(C)c1cc(N2CCSCC2)n2nccc2n1,-0.7718
N[C@@H]1c2ccccc2C2(CCN(C(=O)c3ccc(CO)o3)CC2)[C@H]1O,0.3195
CN(C)[C@@H]1CCN(C(=O)c2ccccn2)[C@H]1Cc1ccncc1,9.88
Cc1nn(C)c(Cl)c1C1CCCN1Cc1ccc(C(N)=O)cc1 (stereo not drawn),7.986
Cc1cccc(C)c1OCCNC(=O)CNC(=O)C1CCCC1,3.375
O=C(CCCc1ccc(Cl)cc1)N1CCC(c2nnc[nH]2)CC1,34.76 and 0.7449
CC(C)n1cc2cc(NC(=O)CCS(C)(=O)=O)ccc2n1,-5.684
COC(=O)C(NC(=O)c1ccc(NC2CC2)nc1)c1ccccc1 (stereo not drawn),-9.55
O=C(O)C(F)(F)F.[H][C@@]12CN(C)CCO[C@]1([H])CN(S(=O)(=O)c1ccccc1)C2,9.503
CS(=O)(=O)N1CCC(C(=O)NCCNc2ncccn2)CC1,-3.592
CN(Cc1nccn1CC(F)(F)F)C(=O)c1cccc(C#N)c1,10.03
COCc1n[nH]/c(=N/C(=O)COc2cnc(C)cc2O)s1,-25.81 and -10.26 and -33.31
Cn1cc(CCNC(=O)N2CCCC(c3nncn3C)C2)cn1 (stereo not drawn),6.717
CCN(CC1CCOC1)C(=O)c1cnc2onc(C)c2c1 (stereo not drawn),5.028
O=C(O)C(F)(F)F.[H][C@]12CCC[C@@H](CN(C)CCOC)[C@@]1([H])CN(c1cc(OC)ncn1)C2,-6.376
Cn1ccc(CN2CCC(c3ccccc3)CC2)cc1=O,-1.308
Cc1cc(-c2cnn(CCNC(=O)C3CCCO3)c2C2CC2)on1 (stereo not drawn),-11.73
CS(=O)(=O)NCc1ncn2c1CN(CCN1CCCC1)CCC2,-3.448
O=C(O)C(F)(F)F.[H][C@@]12COC[C@]1(CNC(=O)c1ccco1)CN(Cc1cc(C)on1)C2,-17.8
Cc1cnn(CC2CCCCN2C(=O)Cc2c(C)noc2C)c1 (stereo not drawn),-1.164
CCCn1ccnc1CN1C[C@@H](CN2CCCCC2)[C@@H](CO)C1,-6.922
COc1cccc(N2CC3(CCN(C(=O)NC(C)C)C3)CC2=O)c1 (stereo not drawn),-11.19
Cn1cc(CN2CCc3onc(COc4cccnc4)c3C2)cn1.O=C(O)C(F)(F)F.O=C(O)C(F)(F)F,4.605
CCN(C(=O)c1cnc(-c2ccc3c(c2)OCO3)s1)C1CC1,-15.93 and -34.81
Cc1ccc(CN2CCOC3(CCN(CC4CCOC4)CC3)C2)cc1.O=C(O)C(F)(F)F.O=C(O)C(F)(F)F (stereo not drawn),8.833
O=C(O)C(F)(F)F.c1csc(CN2CCc3nnc(COc4cncnc4)n3CC2)c1,-2.92
O=S(=O)(Cc1ccccc1)NCc1nnc2n1CCC2,7.539
CS(=O)(=O)CCCNC(=O)Nc1sc2ccccc2c1Cl,-22.09 and -10.77 and -17.84
CCS(=O)(=O)NC1CCCN(c2cc(C)ccc2F)C1=O (stereo not drawn),-4.281
CC(C)Oc1cccc(C(=O)C2CCCN(C(=O)c3cncs3)C2)c1 (stereo not drawn),-11.61
Cc1oc(-c2cccs2)nc1C(=O)N1CCCC1Cn1cccn1 (stereo not drawn),-9.289
Cc1noc(NCc2cn(C)nc2-c2ccncc2)n1,-5.037
CN(C)c1ccc(NC(=O)c2cccc(N(C)C)c2)nc1,-39.97 and -35.53
COc1ccccc1CN1CC(O)CN(S(=O)(=O)C(C)C)CC1=O (stereo not drawn),-25.89
CCNc1cc2c(nn1)CCN(C(=O)c1ccc(-n3cccn3)nc1)C2,-4.118
Cc1ccccc1OCCCC(=O)N(C)CCC#N,-2.023
CC(C)(C)n1ncc2c1CCCC2NCc1ccc2c(c1)OCCO2 (stereo not drawn),101 and 99.54
Cc1ccc(C(=O)NC(CN2CCCC2=O)c2ccccc2)cn1 (stereo not drawn),8.904
Nc1cc2c(nn1)CCN(C(=O)c1cccc3c1OCO3)C2,4.262
O=C(O)C(F)(F)F.O=C(O)C(F)(F)F.c1coc(CN2CCCC3(COCCN(Cc4c[nH]nn4)C3)C2)c1 (stereo not drawn),-4.437
Cc1ncc(CN(C)C2CCCN(Cc3noc(C4CC4)n3)C2)s1 (stereo not drawn),0
Cc1nc(Cn2c3c(ccc2=O)CC(NC(N)=O)CC3)cs1 (stereo not drawn),22.42
NC(=O)Cc1ccc(NC(=O)C2CCOCC2)cc1,-3.926
Cc1cc(O)nc(C2CCCN(Cc3ccncc3)C2)n1 (stereo not drawn),-9.36
O=C(O)C(F)(F)F.[H][C@@]12CCN(Cc3nccs3)C[C@@]1([H])O[C@H](C(=O)N1CCC(C)CC1)C2,-0.8914
Cc1cc(N2CCC3(CCCN(CCO)C3=O)C2)nc2cc(Cl)ccc12 (stereo not drawn),-0.3581
NC(=O)N1CCC2(CC1)CN(c1ncccn1)CCO2,4.08
c1ccc(-n2cc(CN3CCCC(Cn4cncn4)C3)nn2)cc1 (stereo not drawn),-4.773
COCC(=O)N1CCCC(c2cccc(-n3ccnc3)n2)C1 (stereo not drawn),-0.8368
CCOC(C)C(=O)N(C)C1CCN(c2ccc(OC)cc2)CC1 (stereo not drawn),-7.993
O=C(O)C(F)(F)F.[H][C@@]12CN(Cc3ccc(F)cc3)C[C@]1([H])C(=O)N(CCOC)C2,9.895
Cl.O=C(N1CCOCC1)N1CCC2(CCNC2)C1 (stereo not drawn),-0.5133
Cc1cc(C)n(CC2CN(CC(=O)NC3CCCC3)CCO2)n1 (stereo not drawn),-5.887
Cn1cc(CC2CCN(C(=O)NCc3csc(C4CC4)n3)C2)cn1 (stereo not drawn),4.745
O=C(O)c1c[nH]c2cc(NS(=O)(=O)c3ccc(Cl)cc3F)ccc12,8.285
CC(C)=CCN(C)C1CCCN(Cc2noc(C)n2)C1 (stereo not drawn),5.931
Cc1nc(C)c(COc2ccc(S(=O)(=O)N(C)C)cc2)s1,5.36 and 0 and 2.114
COc1cccc(N2CCN(C(=O)c3noc4c3CCCC4)CC2)c1,-4.269
CCn1c(Cn2cncn2)nnc1C1CCN(Cc2ccc(C)o2)CC1,-5.509
CC(C)c1nc(C2CCCN(C(=O)CCCn3ccnc3)C2)no1 (stereo not drawn),4.799
Cc1cccnc1CNCC1(O)CCCN(Cc2ccc(F)cc2)C1=O (stereo not drawn),-3.846
COC(=O)CCN1CCCC1c1ccccc1Cl (stereo not drawn),6.223
COc1cccc2c1OCC(NC(=O)NCCC(N)=O)C2 (stereo not drawn),8.684
Cl.[H][C@]12CN(C(=O)CC(C)(C)C)[C@]([H])(CN1)C2,-6.33
[H][C@]12CCN(S(=O)(=O)c3ccc(C)cc3)[C@@]1([H])[C@@H](NC(=O)c1ccncc1)C2,-4.208
Cc1ncsc1C(=O)N1CCCN(Cc2cscn2)CC1,-15.72
Cc1ncc(CN2CCCC(c3cc(C(F)(F)F)[nH]n3)C2)s1 (stereo not drawn),-9.07
O=C(NCCO)C1(Cc2ccccc2-c2ccncc2)CCOCC1,2.462
Cc1nc(CN2CC(CCCc3ccccn3)(C(=O)N(C)C)C2)co1,-0.6757
[H][C@@]12CS(=O)(=O)C[C@]1([H])N(Cc1ccc(C)cc1)CCN2Cc1ccncc1,0.1103
CCc1nccn1-c1cncc(C2CCCN2)n1.Cl (stereo not drawn),5.877
CC(C)c1nnc2n1CCN(C(=O)c1cc(Cl)c[nH]1)C2,2.677
O=C(NCc1cc(Br)cs1)Nc1cn[nH]c1,5.013
O=C(O)C(F)(F)F.[H][C@@]12COC[C@]1(CNC(=O)C1CC1)CN(Cc1cccc(OC)c1)C2,3.376
c1ncn(CC2CCCN2Cc2cn3ccsc3n2)n1 (stereo not drawn),-0.6441
COc1nn(C)c2c1CCCN(C(=O)c1c[nH]cn1)C2,0.5963
COCC(O)CNC(=O)c1cnc(-c2ccccc2)nc1O (stereo not drawn),-16.59
Cn1cccc1C(=O)NCc1cnc2n1CCN(CC1CCOCC1)C2.O=C(O)C(F)(F)F,-1.618
[H][C@@]12CCN(Cc3cc(C)on3)C[C@@]1([H])O[C@@H](c1nccs1)C2,2.971
CN(C)C(=O)N1CCc2c(CNc3ncccn3)cncc2C1,-4.004
CCc1c(C)nc2n(c1=O)CC(C(=O)Nc1nccs1)CS2 (stereo not drawn),4.581
Cc1ccc(F)c(NC(=O)NCCCn2nc3ccccn3c2=O)c1,-3.606

Repeated from the top, 8 entries:

SMILES,percent effect
Cc1cccc(NC(=O)N2CC(C(=O)NC(C)C)C3(CCOCC3)C2)c1 (stereo not drawn),-1.546
Cc1ccc(NC(=O)Cn2cc(I)cn2)cc1,-17.48 and -21.7 and -14.78
O=C(C1CCCN1Cc1nc(-c2ccco2)no1)N1CCSCC1 (stereo not drawn),14.26
O=c1[nH]c2ccccc2c(=O)n1Cc1nnnn1C1CC1,6.363 and 7.402
CCNc1ccnc(NCC2(N(C)C)CCOCC2)n1,2.281
O=C(O)C(F)(F)F.[H][C@@]12CCCO[C@]1([H])[C@H](NC(=O)c1cnccn1)CN(CCOC)C2,4.87
Cc1nc(C(C)(C)C)sc1C(=O)NCCNc1ncccc1C#N,-17.97
CC(C)C(NC(=O)Nc1ccccn1)c1cccs1 (stereo not drawn),14.64